Assay results taken from article PMC3089914, “Structural Basis of the 9-Fold Symmetry of Centrioles” (Cell, 2011).
No constants are given. Whether binding was seen depends on the method and setting.

Molecular target: C. elegans SAS-6 N-terminal domain fragment with I154E (ceN[I154E]) (C. elegans) (UniProt O62479)
Test: AUC; sedimentation velocity, 20°C, 300 μM protein; 20 mM Tris-HCl pH 7.5, 150 mM NaCl, 2 mM TCEP, 1% glycerol; both purified

B1: C. elegans SAS-6 N-terminal domain fragment with I154E (ceN[I154E]) (domain or fragment, UniProt O62479 1-168)
chain: MTSKIALFDQTLIASLLQPLSLNQPDFKAYKTKVKLKISEQRNETSGEKELKFEISRSDDFEFLFSETLNNEKYQILARDHDLTVDFDAFPKVIIQHLLCKNIVKNLEEDGEVDARKKAGYHSIADPGKPTEINIILDAEKNFCSFELFSKTPESKGKIFSIKLHAVR
For B1, the binding was “no binding (tested: 300 μM)”.
